{"source": "PubChem BioAssay AID602196 (INSERM, 2012)", "assay": "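Knock-downs that protect lung cancer cells from cisplatin or sensitise them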", "cells": "human A549 lung cancer cells", "reagent": "siRNA pair against human genes", "timing": "48 h transfection before cisplatin; time from cisplatin to read-out not stated", "treatment": "cisplatin at a dose killing half of control-siRNA cells; exact dose and duration not given", "measured": "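Shift in cisplatin death relative to control siRNA, from -50 (all cells die) to +50 (no cells die); siRNAs harmful on their own scored 0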", "direction": "two-siRNA summed score (-2 to +2): higher = both siRNAs protect from cisplatin killing; -2 means both sensitise", "hit rule": "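Each siRNA scores 0 if harmful alone by LDH or WST-1, otherwise +1 if it reduces and -1 if it increases cisplatin killing; a gene is active when both siRNAs agree (sum +2 or -2)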", "calls": "active = both siRNAs shift cisplatin killing the same way; inactive = no consistent shift, or siRNA harmful alone", "note": "The whole screen tested about 23,000 reagents; shown is a random part of them. 455 of all reagents (2%) count as active. 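Active includes both protection and sensitisation; some change values fall well beyond the stated -50 to +50 range.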 Further read-outs or replicates are left out here. No sequences are given here. The record does not give: the amount of reagent."}
{"Target gene": "ANKRD29 (GeneID 147463)", "two-siRNA summed score (-2 to +2)": 0, "activity call": "inactive"}
{"Target gene": "ZNF585A (GeneID 199704)", "two-siRNA summed score (-2 to +2)": 0, "activity call": "inactive"}
{"Target gene": "FER (GeneID 2241)", "two-siRNA summed score (-2 to +2)": -1, "activity call": "inactive"}
{"Target gene": "MMD (GeneID 23531)", "two-siRNA summed score (-2 to +2)": 0, "activity call": "inactive"}
{"Target gene": "LOC442496", "two-siRNA summed score (-2 to +2)": 0, "activity call": "inactive"}
{"Target gene": "MYRFL (GeneID 196446)", "two-siRNA summed score (-2 to +2)": -1, "activity call": "inactive"}
{"Target gene": "FLOT1 (GeneID 10211)", "two-siRNA summed score (-2 to +2)": 0, "activity call": "inactive"}
{"Target gene": "ERP27 (GeneID 121506)", "two-siRNA summed score (-2 to +2)": 1, "activity call": "inactive"}
{"Target gene": "FLJ25778", "two-siRNA summed score (-2 to +2)": 0, "activity call": "inactive"}
{"Target gene": "SLX9 (GeneID 85395)", "two-siRNA summed score (-2 to +2)": 0, "activity call": "inactive"}
{"Target gene": "MRPL35 (GeneID 51318)", "two-siRNA summed score (-2 to +2)": 0, "activity call": "inactive"}
{"Target gene": "PNKP (GeneID 11284)", "two-siRNA summed score (-2 to +2)": 2, "activity call": "active"}

Laid out differently: entries from further up
Target gene | two-siRNA summed score (-2 to +2) | activity call
ERP27 (GeneID 121506) | 1 | inactive
FLJ25778 | 0 | inactive
